This assay can be described thus: qHTS Assay for Lipid Storage Modulators in Drosophila S3 Cells.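 For cell number change: cells counted by Cell Tracker Red CMTPX staining in the red channel.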 Particulars: BODIPY lipid droplet fluorescence, 18-24 h; for cell number change: measured here: cell count max response, cells fed with added oleic acid. In a few lines:
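Drosophila S3 cells got compounds at several concentrations plus oleic acid (400 uM solution). Laser-scanning cytometry with 488 nm excitation read lipid droplets at 500-530 nm and cells at 575-640 nm. Percent activity was relative to 20 uM Triacsin C.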

[1] abbreviates: measured here: lipid fluorescence (Fed channel) AC50, cells fed with added oleic acid.
Where [2] appears, read: measured here: cell number channel AC50, cells fed with added oleic acid.

The other results are listed elsewhere or left out. Further columns of the screen follow, without active or inactive calls. Compounds called inactive in the main read-out are mostly missing here. Words in brackets tell the shape of the fitted curve; partial curves, single points and poor fits give uncertain potencies.

As a reminder, the AC50 is the midpoint of the concentration-response curve, whichever way the signal moves.

Turning to `O=C(Nc1sc2c(c1C(=O)N1CCOCC1)CCCCC2)c1cccnc1`, the cell number change was -1.38%. Besides, the AC50 under setting [1] was 29100 nM [rising, single point].

In the case of `CCc1ccc(N2CC(C(=O)OCC(=O)c3c(N)n(CC(C)C)c(=O)n(C)c3=O)CC2=O)cc1` (stereo unspecified), the cell number change was found to be 14.5%.

Regarding `N#Cc1ccc(NC(=O)CSc2n[nH]c(=O)n2C2CC2)cc1`, the cell number change stood at 14.7%. For the same molecule, the AC50 under setting [2] is 103 nM [falling, full curve, poor fit]. Besides, under setting [1], the AC50 was 164 nM [falling, full curve, poor fit].

For `O=C(NNC(=O)c1ccc(-n2cncn2)c([N+](=O)[O-])c1)c1ccc(Cl)cc1`, the cell number change is -31.4%. Further, under setting [2], the AC50 was 9200 nM [falling, partial curve, poor fit].

Regarding `Cc1ccccc1OCCOCCN1CCCCCC1`, the cell number change is -26.9%. Besides, the AC50 under setting [1] was 130 nM [rising, full curve, poor fit].

As for `Cc1ccc(S(=O)(=O)Nc2ccc(NC(=O)/C=C/C(=O)O)cc2)cc1`, the cell number change was -9.23%.

For the molecule `CCOc1ccc2nc(NC(=O)Cn3cnc4c3c(=O)n(C)c(=O)n4C)sc2c1`, the cell number change was -12.8%.

For the molecule `O=C(Nc1cc(C(F)(F)F)ccc1N1CCOCC1)c1ccc[n+]([O-])c1`, the cell number change was -33.6%. The concentration at half-maximal activity (AC50) under setting [2] is 2590 nM [falling, full curve].

Consider `O=C(NCC(=O)N(c1ccccc1)C(C(=O)NCC1CCCO1)c1ccccc1)c1cccs1` (stereo unspecified), for which the cell number change was found to be 8.26%. Further, under setting [1], the AC50 was 6510 nM [rising, single point].

In the case of `C/C(N)=C(/C#N)C(=O)COC(=O)c1ccc(C#N)cc1`, the cell number change amounted to 39.5%. For the same molecule, under setting [1], the AC50 is 73.1 nM [falling, full curve, poor fit].

With `O=C1CC(c2ccc(S(=O)(=O)NCc3ccncc3)cc2)CN1` (stereo unspecified), the AC50 under setting [1] was 116 nM [falling, full curve, poor fit].

`NC(=O)CN1CCCN(S(=O)(=O)c2ccc(Br)cc2)CC1`: the cell number change was 156%. In addition, the half-maximal activity concentration (AC50) under setting [1] was 731 nM [falling, single point].

`CCC(C)Nc1ccc(NC(C)CC)cc1` (stereo unspecified): the cell number change was 8.47%. For the same molecule, under setting [2], the AC50 is 4.61 nM [falling, full curve, poor fit]. Also, under setting [1], the AC50 was 4.61 nM [falling, full curve, poor fit].

In the case of `Cc1noc(-c2ccccc2)c1NC(=O)Nc1ccccc1`, the cell number change is -17.1%.

On to `COc1ccccc1-c1cc(C(=O)N/N=C/c2sccc2C)c2ccccc2n1`, for which the cell number change is -21.1%. For the same molecule, the AC50 under setting [1] was 206 nM [falling, full curve, poor fit].

In the case of `O=C(C1CC(=O)N(c2ccc(F)cc2)C1)N1CCN(c2ccccc2)CC1` (stereo unspecified), the cell number change worked out at 10.7%.

As to `COC(=O)C1=CN(C)C=C(C(=O)OC)C1c1ccccc1Cl`, the cell number change was -57.6%. Besides, under setting [2], the AC50 is 2060 nM [falling, full curve]. Also, the AC50 under setting [1] is 1640 nM [falling, full curve].
